PubChem BioAssay AID743121 – NCATS, 2013
Assay: 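Genes whose silencing strengthens cell killing by camptothecin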 (primary screen). System: MDA-MB-231 cells, a human breast cancer line. Knock-down reagent: single siRNA against human genes, 20 nM siRNA (0.8 pmol per well). Time to read-out: 120 h (drug added 48 h after transfection, read 72 h later). Treatment: camptothecin 20 nM (about EC30) for 72 h; vehicle 0.1% DMSO in parallel plates. Detection: 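CellTiter-Glo ATP signal, scaled to control siRNA as percent viability; sensitisation given as log2 of untreated divided by camptothecin-treated viability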. Scale: log2 vehicle/camptothecin viability: higher = stronger sensitisation to camptothecin; viability with camptothecin: higher = more viable cells. Units: viability with camptothecin in % of control. Call rule: 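Active genes have an RSA gene-level p-value below 0.001, computed from the ratios of their separate siRNAs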.
Shown is one part, drawn at random, of about 26,000 reagents. 167 of them (0.63%) count as active. 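Calls are per gene from RSA p-values that are not deposited; an individual active-marked siRNA can sensitise only weakly.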 Unmarked entries are inactive. The numbers tell different reagents against one gene apart. Not all columns of the deposit are shown.

Which result is listed for GZMH #1?
log2 vehicle/camptothecin viability: -0.00577; viability with camptothecin: 62.7

With GZMH #2, how do the results read?
log2 vehicle/camptothecin viability: -0.123; viability with camptothecin: 49.4

For GZMH #3, how do the results read?
log2 vehicle/camptothecin viability: -0.285; viability with camptothecin: 110

Which result is listed for GZMH #4?
log2 vehicle/camptothecin viability: -0.399; viability with camptothecin: 63.1

For LARS1 #1, what does the deposit list?
log2 vehicle/camptothecin viability: -0.152; viability with camptothecin: 71.5

What did the screen give for LARS1 #2?
log2 vehicle/camptothecin viability: -0.17; viability with camptothecin: 73.9

What did the screen give for LARS1 #3?
log2 vehicle/camptothecin viability: 0.303; viability with camptothecin: 48.6

With LARS1 #4, how do the results read?
log2 vehicle/camptothecin viability: -0.184; viability with camptothecin: 79.2

For KLK9 #1, what does the deposit list?
log2 vehicle/camptothecin viability: -0.182; viability with camptothecin: 33.8

With KLK9 #2, what does the deposit list?
log2 vehicle/camptothecin viability: -0.282; viability with camptothecin: 99

What did the screen give for KLK9 #3?
log2 vehicle/camptothecin viability: -0.085; viability with camptothecin: 105

Which result is listed for POLA1 #1?
log2 vehicle/camptothecin viability: -0.73; viability with camptothecin: 23.3

How did the screen score POLA1 #2?
log2 vehicle/camptothecin viability: -0.847; viability with camptothecin: 19.6

What is on record for POLA1 #3?
log2 vehicle/camptothecin viability: 0.216; viability with camptothecin: 28.1

With POLA1 #4, what does the deposit list?
log2 vehicle/camptothecin viability: -0.843; viability with camptothecin: 72

With DHH #1, what does the deposit list?
log2 vehicle/camptothecin viability: -0.516; viability with camptothecin: 70.5

What did the screen give for DHH #2?
log2 vehicle/camptothecin viability: 0.282; viability with camptothecin: 68.4

How did the screen score DHH #3?
log2 vehicle/camptothecin viability: -0.474; viability with camptothecin: 96.8

For DHH #4, how do the results read?
log2 vehicle/camptothecin viability: -0.0678; viability with camptothecin: 87.6

Which result is listed for ALPK3 #1?
log2 vehicle/camptothecin viability: -0.527; viability with camptothecin: 120

What is on record for ALPK3 #2?
log2 vehicle/camptothecin viability: -0.442; viability with camptothecin: 81.9

What did the screen give for ALPK3 #3?
log2 vehicle/camptothecin viability: 0.154; viability with camptothecin: 77.1

What did the screen give for ALPK3 #4?
log2 vehicle/camptothecin viability: -0.547; viability with camptothecin: 90.9

With CTSW #1, what does the deposit list?
log2 vehicle/camptothecin viability: 0.278; viability with camptothecin: 48.2

With CTSW #2, what does the deposit list?
log2 vehicle/camptothecin viability: -0.258; viability with camptothecin: 80.9

With CTSW #3, what does the deposit list?
log2 vehicle/camptothecin viability: -0.352; viability with camptothecin: 76.7
